The other results are listed elsewhere or left out.
Compound: Cc1cc(Nc2cc(CN3CCOCC3)c3nc(C)c(Cc4ccc(Cl)cc4F)n3n2)n[nH]1 [gandotinib]
Assay: log2 fold change, soluble protein after heating vs DMSO (PISA); higher = thermal stabilisation; K562 cells, 10 uM, 30 min; active = over 0.2 and 3.5 SD of the protein, either way, in both replicates (recomputed)
How it was run: (§1)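 Values are thermal stability changes relative to control samples and are taken from duplicates. They are stated as log2 fold changes. Before quantification by TMTpro 16plex LC-MS/MS with equalised channel sums, K562 cells at 2×10^6 cells/mL were treated with 10 μM compound for 30 min, heated in aliquots for 3 min across 48°C-58°C, pooled, extracted in PBS with 0.5% NP-40 at 4°C, and centrifuged at 21,000xg for 90 min to give the soluble supernatant.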

Sequences of proteins named here, by UniProt entry; tags and fusion partners are left off. A change or cut given only in a name is not applied to a line headed by its entry.
UniProt Q6UX53: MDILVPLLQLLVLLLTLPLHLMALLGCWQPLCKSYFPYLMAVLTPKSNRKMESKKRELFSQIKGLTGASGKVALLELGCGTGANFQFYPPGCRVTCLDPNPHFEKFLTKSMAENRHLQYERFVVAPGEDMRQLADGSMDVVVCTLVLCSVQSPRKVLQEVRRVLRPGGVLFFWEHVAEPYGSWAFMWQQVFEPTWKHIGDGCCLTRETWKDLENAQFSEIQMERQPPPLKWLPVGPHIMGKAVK
UniProt Q9Y4C4: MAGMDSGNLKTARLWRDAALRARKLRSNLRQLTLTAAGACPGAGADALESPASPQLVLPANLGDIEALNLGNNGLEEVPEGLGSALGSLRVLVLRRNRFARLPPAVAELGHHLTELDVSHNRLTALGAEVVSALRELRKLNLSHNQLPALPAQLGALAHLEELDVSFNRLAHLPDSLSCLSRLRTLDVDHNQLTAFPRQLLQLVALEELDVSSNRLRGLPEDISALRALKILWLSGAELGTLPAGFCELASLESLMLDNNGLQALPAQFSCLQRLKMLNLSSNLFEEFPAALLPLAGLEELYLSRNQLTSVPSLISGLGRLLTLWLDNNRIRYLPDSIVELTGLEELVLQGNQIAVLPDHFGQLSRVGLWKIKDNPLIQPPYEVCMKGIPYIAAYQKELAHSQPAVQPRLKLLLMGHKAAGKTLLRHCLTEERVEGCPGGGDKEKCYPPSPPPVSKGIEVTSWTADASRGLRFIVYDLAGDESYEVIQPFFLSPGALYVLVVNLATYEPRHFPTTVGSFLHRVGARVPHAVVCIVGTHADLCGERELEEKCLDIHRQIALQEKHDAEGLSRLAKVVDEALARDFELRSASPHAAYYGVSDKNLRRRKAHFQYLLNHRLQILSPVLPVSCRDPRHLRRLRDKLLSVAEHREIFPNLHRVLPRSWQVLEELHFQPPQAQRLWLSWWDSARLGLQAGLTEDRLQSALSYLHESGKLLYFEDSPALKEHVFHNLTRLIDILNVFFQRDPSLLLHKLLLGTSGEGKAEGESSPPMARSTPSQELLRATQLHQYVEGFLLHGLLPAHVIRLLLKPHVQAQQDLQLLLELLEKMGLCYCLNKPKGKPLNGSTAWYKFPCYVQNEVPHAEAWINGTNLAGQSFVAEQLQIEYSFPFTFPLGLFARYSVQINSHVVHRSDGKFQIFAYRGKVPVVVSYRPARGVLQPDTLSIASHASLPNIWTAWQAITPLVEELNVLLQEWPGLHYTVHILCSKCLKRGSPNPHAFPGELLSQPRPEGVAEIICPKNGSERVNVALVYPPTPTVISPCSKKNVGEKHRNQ
UniProt Q6ZSS7: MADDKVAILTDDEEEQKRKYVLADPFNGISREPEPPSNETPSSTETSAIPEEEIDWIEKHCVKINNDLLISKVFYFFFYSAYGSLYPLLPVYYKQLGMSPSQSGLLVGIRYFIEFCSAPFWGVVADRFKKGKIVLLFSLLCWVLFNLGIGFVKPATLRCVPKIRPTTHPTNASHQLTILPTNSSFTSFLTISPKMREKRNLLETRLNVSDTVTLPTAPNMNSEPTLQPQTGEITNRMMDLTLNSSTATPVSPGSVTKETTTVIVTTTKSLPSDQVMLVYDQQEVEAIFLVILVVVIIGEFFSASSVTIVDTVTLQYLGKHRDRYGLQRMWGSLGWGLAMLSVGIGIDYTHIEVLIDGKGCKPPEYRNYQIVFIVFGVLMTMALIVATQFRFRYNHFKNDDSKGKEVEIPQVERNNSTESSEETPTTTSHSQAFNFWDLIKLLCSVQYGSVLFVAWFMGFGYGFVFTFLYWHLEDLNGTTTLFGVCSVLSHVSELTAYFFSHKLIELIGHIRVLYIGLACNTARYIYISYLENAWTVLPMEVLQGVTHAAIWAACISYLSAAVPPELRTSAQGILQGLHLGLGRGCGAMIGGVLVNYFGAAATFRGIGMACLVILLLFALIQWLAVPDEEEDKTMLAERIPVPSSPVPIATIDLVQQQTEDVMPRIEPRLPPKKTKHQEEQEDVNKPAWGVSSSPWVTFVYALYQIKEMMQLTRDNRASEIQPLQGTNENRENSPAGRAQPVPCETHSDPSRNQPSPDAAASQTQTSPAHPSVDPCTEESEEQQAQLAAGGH
UniProt Q8NHS3: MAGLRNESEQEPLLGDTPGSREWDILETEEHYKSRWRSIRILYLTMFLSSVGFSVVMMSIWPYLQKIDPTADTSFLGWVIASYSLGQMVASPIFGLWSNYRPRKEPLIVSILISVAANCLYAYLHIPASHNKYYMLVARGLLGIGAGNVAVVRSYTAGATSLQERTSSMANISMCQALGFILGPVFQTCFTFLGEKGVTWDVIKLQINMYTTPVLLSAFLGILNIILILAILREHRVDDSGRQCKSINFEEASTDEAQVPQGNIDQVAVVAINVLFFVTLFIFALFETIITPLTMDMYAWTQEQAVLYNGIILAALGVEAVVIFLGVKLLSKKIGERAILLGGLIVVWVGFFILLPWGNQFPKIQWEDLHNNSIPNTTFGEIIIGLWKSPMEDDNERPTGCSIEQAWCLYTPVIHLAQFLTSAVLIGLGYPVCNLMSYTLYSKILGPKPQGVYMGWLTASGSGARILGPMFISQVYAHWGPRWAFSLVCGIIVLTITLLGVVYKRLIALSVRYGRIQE
UniProt Q13503: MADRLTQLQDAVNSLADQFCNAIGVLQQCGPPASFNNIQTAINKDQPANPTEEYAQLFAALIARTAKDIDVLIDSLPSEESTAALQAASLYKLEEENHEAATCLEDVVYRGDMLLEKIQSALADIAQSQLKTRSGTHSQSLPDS
UniProt Q5VZF2: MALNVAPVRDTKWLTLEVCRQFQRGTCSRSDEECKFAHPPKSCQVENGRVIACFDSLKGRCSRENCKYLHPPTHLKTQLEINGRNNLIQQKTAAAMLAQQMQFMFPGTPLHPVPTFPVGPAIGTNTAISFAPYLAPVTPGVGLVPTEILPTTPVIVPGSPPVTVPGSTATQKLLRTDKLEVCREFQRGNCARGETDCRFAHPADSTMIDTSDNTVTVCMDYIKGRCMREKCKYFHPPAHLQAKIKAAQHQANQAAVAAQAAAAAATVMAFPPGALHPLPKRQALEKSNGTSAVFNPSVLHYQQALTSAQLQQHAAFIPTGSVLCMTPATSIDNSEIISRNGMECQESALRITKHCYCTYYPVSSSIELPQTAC
UniProt A4D2B0: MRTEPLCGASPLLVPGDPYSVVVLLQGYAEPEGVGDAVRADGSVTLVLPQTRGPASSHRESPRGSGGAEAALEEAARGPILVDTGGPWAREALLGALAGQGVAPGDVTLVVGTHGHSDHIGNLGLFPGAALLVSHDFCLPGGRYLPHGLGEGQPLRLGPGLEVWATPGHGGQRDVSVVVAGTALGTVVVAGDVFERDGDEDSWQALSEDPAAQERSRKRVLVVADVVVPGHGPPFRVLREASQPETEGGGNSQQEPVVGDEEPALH
UniProt Q02078: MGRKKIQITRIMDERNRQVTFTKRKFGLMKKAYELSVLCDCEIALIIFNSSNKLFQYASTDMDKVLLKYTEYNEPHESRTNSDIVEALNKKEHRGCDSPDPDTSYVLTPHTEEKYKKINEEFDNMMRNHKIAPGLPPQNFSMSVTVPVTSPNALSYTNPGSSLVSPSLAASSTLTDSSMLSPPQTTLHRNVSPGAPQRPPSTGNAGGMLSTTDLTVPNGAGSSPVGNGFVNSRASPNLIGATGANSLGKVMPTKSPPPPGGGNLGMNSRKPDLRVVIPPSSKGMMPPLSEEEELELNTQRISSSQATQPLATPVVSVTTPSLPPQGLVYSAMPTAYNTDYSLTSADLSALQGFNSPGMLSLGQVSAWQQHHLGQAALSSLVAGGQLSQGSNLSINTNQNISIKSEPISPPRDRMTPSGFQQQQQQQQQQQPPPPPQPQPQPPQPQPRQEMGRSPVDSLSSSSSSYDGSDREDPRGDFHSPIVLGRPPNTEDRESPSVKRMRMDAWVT
UniProt P21741: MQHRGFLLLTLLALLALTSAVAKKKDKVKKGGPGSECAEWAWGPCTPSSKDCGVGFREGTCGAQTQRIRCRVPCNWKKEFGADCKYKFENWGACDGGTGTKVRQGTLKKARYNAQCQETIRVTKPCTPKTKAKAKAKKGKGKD
UniProt Q9H204: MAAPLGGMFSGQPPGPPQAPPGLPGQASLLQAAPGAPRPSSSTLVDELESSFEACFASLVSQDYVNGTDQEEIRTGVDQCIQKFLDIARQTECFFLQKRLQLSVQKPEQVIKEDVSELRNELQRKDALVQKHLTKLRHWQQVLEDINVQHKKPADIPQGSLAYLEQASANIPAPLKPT
UniProt Q9NWA0: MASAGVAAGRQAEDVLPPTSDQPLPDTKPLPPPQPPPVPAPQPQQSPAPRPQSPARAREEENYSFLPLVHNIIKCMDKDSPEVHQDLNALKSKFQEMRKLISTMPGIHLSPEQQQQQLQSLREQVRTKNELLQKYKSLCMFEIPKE
UniProt Q6P2C8: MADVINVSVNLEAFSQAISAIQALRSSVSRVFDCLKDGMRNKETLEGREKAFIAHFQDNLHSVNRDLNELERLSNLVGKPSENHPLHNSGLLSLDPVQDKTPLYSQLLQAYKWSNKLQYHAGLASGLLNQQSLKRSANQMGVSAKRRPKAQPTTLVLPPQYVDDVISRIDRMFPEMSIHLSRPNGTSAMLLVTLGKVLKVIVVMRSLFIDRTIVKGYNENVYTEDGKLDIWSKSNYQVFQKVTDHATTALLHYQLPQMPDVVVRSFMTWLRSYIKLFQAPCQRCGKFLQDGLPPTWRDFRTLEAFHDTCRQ
UniProt O60291: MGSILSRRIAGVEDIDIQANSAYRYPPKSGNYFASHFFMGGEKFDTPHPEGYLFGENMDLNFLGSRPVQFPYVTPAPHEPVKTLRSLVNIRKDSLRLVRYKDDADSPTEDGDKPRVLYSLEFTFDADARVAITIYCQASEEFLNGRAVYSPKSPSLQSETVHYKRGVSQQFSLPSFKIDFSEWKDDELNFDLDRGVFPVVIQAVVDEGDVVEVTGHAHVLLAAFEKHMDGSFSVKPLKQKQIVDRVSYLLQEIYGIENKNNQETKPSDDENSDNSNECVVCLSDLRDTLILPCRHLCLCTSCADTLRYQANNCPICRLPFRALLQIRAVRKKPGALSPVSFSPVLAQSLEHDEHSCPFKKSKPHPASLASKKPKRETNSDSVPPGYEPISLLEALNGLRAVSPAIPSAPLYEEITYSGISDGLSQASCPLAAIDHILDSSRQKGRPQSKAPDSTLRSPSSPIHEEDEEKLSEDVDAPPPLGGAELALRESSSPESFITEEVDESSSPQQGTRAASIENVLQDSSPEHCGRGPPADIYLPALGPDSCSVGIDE
UniProt O14770: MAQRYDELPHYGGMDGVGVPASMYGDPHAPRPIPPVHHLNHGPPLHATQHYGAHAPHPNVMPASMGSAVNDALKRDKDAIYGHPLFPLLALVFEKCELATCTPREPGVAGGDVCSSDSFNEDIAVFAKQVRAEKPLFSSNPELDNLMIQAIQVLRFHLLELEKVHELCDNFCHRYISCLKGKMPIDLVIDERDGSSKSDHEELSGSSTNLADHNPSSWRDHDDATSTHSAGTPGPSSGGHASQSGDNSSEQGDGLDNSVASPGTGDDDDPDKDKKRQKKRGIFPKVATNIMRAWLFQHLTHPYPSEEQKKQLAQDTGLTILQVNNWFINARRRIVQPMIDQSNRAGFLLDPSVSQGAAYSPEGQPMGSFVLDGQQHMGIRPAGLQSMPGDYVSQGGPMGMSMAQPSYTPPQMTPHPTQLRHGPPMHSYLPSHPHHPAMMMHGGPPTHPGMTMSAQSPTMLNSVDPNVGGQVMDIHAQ
UniProt A6NJ78: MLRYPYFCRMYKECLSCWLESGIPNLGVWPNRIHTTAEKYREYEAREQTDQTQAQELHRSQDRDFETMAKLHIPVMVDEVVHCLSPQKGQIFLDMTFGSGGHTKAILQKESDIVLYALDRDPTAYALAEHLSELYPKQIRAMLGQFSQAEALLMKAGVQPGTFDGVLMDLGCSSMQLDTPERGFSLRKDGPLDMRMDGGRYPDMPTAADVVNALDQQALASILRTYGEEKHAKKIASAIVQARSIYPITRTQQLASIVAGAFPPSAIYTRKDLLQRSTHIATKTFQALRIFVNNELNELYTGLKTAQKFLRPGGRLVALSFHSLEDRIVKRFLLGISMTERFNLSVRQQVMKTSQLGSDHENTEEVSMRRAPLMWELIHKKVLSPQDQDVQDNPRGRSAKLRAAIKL
UniProt Q06413, whole entry, looked up: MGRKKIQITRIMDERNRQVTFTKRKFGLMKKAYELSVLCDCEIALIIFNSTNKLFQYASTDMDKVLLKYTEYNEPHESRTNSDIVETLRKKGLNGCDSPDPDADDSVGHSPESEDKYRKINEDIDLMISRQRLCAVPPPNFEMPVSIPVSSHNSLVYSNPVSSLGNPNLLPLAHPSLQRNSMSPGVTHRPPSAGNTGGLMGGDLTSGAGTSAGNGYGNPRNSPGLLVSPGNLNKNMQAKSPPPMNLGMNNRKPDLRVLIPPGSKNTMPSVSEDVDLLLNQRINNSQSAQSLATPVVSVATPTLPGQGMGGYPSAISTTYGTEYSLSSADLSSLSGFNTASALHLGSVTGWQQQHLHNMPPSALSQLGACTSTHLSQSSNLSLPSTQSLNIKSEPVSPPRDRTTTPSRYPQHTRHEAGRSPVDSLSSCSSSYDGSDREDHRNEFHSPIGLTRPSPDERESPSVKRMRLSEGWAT

log2 fold change, inactive:
METTL7B (UniProt Q6UX53) -0.215
MFHAS1 (UniProt Q9Y4C4) 0.05
MFSD6 (UniProt Q6ZSS7) -0.055
MFSD8 (UniProt Q8NHS3) -0.018
MED21 (UniProt Q13503) 0.086
MASP1 isoform 2 (UniProt P48740) -0.07
MBNL2 (UniProt Q5VZF2) 0.118
MBLAC1 (UniProt A4D2B0) -0.056
MBTPS2 (UniProt O43462) 0.133
MEF2A isoform 2 (UniProt Q02078) 0.186
MAU2 (UniProt Q9Y6X3) -0.016
MDK (UniProt P21741) 0.06
METTL9 (UniProt Q9H1A3) 0.017
MCOLN3 (UniProt Q8TDD5) 0.022
MED28 (UniProt Q9H204) -0.026
MFSD12 isoform 3 (UniProt Q6NUT3) -0.122
MED9 (UniProt Q9NWA0) 0.038
MEGF9 (UniProt Q9H1U4) 0.042
MED27 (UniProt Q6P2C8) 0.061
MFSD1 isoform 6 (UniProt Q9H3U5) -0.077
MGRN1 isoform 2 (UniProt O60291) 0.06
MEIS2 (UniProt O14770) 0.091

Compound: Cc1cc(Nc2cc(N3CCN(C)CC3)nc(Sc3ccc(NC(=O)C4CC4)cc3)n2)n[nH]1 [tozasertib]
Assay: as above
How it was run: as §1

log2 fold change, inactive:
MFHAS1 (UniProt Q9Y4C4) -0.284
MED21 (UniProt Q13503) 0.092
MEGF10 (UniProt Q96KG7) -0.222
MBTPS2 (UniProt O43462) 0.042
MAU2 (UniProt Q9Y6X3) 0
MDK (UniProt P21741) 0.139
MEF2A (UniProt Q02078) -0.011
METTL9 (UniProt Q9H1A3) -0.019
METTL15 (UniProt A6NJ78) 0.135
MED28 (UniProt Q9H204) 0.013
MEGF8 (UniProt Q7Z7M0) -0.161
MEF2C isoform 2 (UniProt Q06413) 0.127
MED11 (UniProt Q9P086) 0.009
MEX3B (UniProt Q6ZN04) -0.109
MEGF9 (UniProt Q9H1U4) -0.059
MBIP (UniProt Q9NS73) -0.044

Source: the supplement of paper PMC10849652
